# The list does not hold the whole screen: it is rich in T/C values a quarter to a half above the control, in often repeated tests (any T/C) and in doses without a T/C. Further doses and runs are listed elsewhere. T/C gives the treated animals as a percentage of the vehicle group. Some entries give survivors of the animals treated and no T/C: the source files T/C as zero there, which appears to mark a toxic dose or a test without result, not a measured value. Some survivor counts are full or nearly so, which does not show that the dose was tolerated: survival well below the control is almost never listed, so the zero probably covers shortened survival too. Survivors were counted at the toxicity check, usually on the fifth day, unless a day is given; later deaths do not show. Schedules are NCI's codes, read here as Q, the interval in days (D) or hours (H), X, the number of doses. Some entries hold several experiments; the values are given in rising order. Some molecules as drawn cover several salts, stereoisomers or complexes of the source; a dose is that of the sample tested. Additions like (4×) say how often a value occurs here. For survival time, this PubChem deposit counts one and a half times the control or more as active, and values a quarter to a half above the control carry no call in these data; other NCI protocols may use other cut-offs.
# Test system: P388 leukemia ip, CD2F1 mice, survival T/C
# Assay: NCI In Vivo Anticancer Drug Screen. Data for tumor model P388 Leukemia (intraperitoneal) in CD2F1 (CDF1) mice
# Conditions: T/C endpoint: median survival time, higher T/C = longer survival
# [1] = dose: 50.0 mg/kg/injection, schedule: Q01DX009 (ip), vehicle: saline
# [2] = dose: 100.0 mg/kg/injection, schedule: Q01DX009 (ip), vehicle: saline
# [3] = dose: 200.0 mg/kg/injection, schedule: Q01DX009 (ip), vehicle: saline
# [4] = dose: 200.0 mg/kg/injection, schedule: Q01DX005 (ip), vehicle: saline with Tween-80
# [5] = dose: 25.0 mg/kg/injection, schedule: Q01DX009 (ip), vehicle: other
compound,measurement,setting,value
CCOC(=O)c1cnn(C)c1N,T/C,[1],131 % of control
same,T/C,[2],138 % of control
same,survivor count,[3],4 of 6
same,survivor count,"dose: 400.0 mg/kg/injection, schedule: Q01DX009 (ip), vehicle: saline",3 of 6
CC(C)(C)c1cc2c3c(c1)C(C(F)(F)F)(C(F)(F)F)OS3(=O)(O)OC2(C(F)(F)F)C(F)(F)F,survivor count,[4],0 of 6
c1cc[n+](CCC2OCCO2)cc1,survivor count,[1],6 of 6
same,survivor count,[3],0 of 6
Nc1nc2nc(/N=N/SCCC(=O)O)[nH]c2c(=O)[nH]1,survivor count,[4],3 of 6
Clc1ccc(CCNCc2ccc(Cl)cc2)cc1,survivor count,"dose: 100.0 mg/kg/injection, schedule: Q01DX005 (ip), vehicle: saline with Tween-80",5 of 6
same,survivor count,[4],0 of 6
CC(C)(C)c1ccnc(N=C2N=C(Nc3cc(C(C)(C)C)ccn3)c3ccccc32)c1,survivor count,"dose: 200.0 mg/kg/injection, schedule: Q01DX009 (ip), vehicle: saline with Tween-80",6 of 6
CN(C)C1=CC(=O)c2ccccc2C12CO2 (stereo unspecified),survivor count,"dose: 400.0 mg/kg/injection, schedule: Q01DX001 (ip), vehicle: saline with Tween-80",3 of 6
CC(=O)OC(OC(C)=O)c1ccc([N+](=O)[O-])c([N+](=O)[O-])c1,survivor count,"dose: 100.0 mg/kg/injection, schedule: Q01DX010 (ip), vehicle: saline",0 of 6
COc1ccc(C(SCC(N)C(=O)O)(c2ccccc2)c2ccccc2)cc1 (stereo unspecified),survivor count,"dose: 150.0 mg/kg/injection, schedule: Q04DX003 (ip), vehicle: Klucel (hydroxypropylcellulose) (HPC)",5 of 6
COc1ccc(C(C)c2cc3c(cc2OCC(=O)O)OCO3)cc1OC (stereo unspecified),survivor count,"dose: 200.0 mg/kg/injection, schedule: Q01DX005 (ip), vehicle: distilled water + Tween-80",2 of 6
O=C1NC(O)c2cccc([N+](=O)[O-])c2O1 (stereo unspecified),survivor count,"dose: 400.0 mg/kg/injection, schedule: Q01DX005 (ip), vehicle: saline with Tween-80",0 of 5
CCN=C1SC2C(=O)N(C)C(S1)C(=O)N2C,survivor count,"dose: 100.0 mg/kg/injection, schedule: Q04DX002 (ip), vehicle: saline with Tween-80",0 of 6
same,survivor count,"dose: 200.0 mg/kg/injection, schedule: Q04DX002 (ip), vehicle: saline with Tween-80",0 of 6
same,survivor count,"dose: 400.0 mg/kg/injection, schedule: Q04DX002 (ip), vehicle: saline with Tween-80",0 of 6
CC(C)Cc1c(O)c(N=Nc2ccc(C(=O)O)c(O)c2)c2ccccc2c1O,survivor count,"dose: 400.0 mg/kg/injection, schedule: Q04DX002 (ip), vehicle: distilled water + alcohol",0 of 6
CC(=O)Nn1c(N)nc2cc(C)ccc21,survivor count,"dose: 100.0 mg/kg/injection, schedule: Q01DX001 (ip), vehicle: saline",6 of 6
Nc1ncnc2c1nc(N)n2C1OC(CO)C(O)C1O (stereo unspecified),T/C,"dose: 12.0 mg/kg/injection, schedule: Q01DX005 (ip), vehicle: saline",126 % of control
same,T/C,"dose: 12.5 mg/kg/injection, schedule: Q01DX005 (ip), vehicle: saline",138 % of control
same,survivor count,"dose: 50.0 mg/kg/injection, schedule: Q01DX005 (ip), vehicle: saline",3 of 6 and 5 of 6
same,survivor count,"dose: 100.0 mg/kg/injection, schedule: Q01DX005 (ip), vehicle: saline",0 of 6
same,survivor count,"dose: 200.0 mg/kg/injection, schedule: Q01DX005 (ip), vehicle: saline",0 of 6
CN(C)CC(CN(C)C)C(=O)c1ccccc1,T/C,"dose: 12.5 mg/kg/injection, schedule: Q01DX009 (ip), vehicle: saline",125 and 127 % of control
same,survivor count,[1],"0 of 5, 2 of 6, 3 of 6"
same,survivor count,[2],0 of 5 and 0 of 6 (2×)
same,survivor count,[3],0 of 6 (2×)
Cc1cc(NCCCCNCCCNc2cc(C)nc3cc([N+](=O)[O-])ccc23)c2ccc([N+](=O)[O-])cc2n1,T/C,"dose: 1.56 mg/kg/injection, schedule: Q01DX009 (ip), vehicle: other",128 % of control
same,T/C,"dose: 3.13 mg/kg/injection, schedule: Q01DX009 (ip), vehicle: other",130 % of control
same,T/C,"dose: 6.25 mg/kg/injection, schedule: Q01DX009 (ip), vehicle: other",139 and 140 % of control
same,T/C,"dose: 12.5 mg/kg/injection, schedule: Q01DX009 (ip), vehicle: other",140 % of control
same,T/C,[5],132 % of control
same,survivor count,[5],6 of 6
same,survivor count,"dose: 50.0 mg/kg/injection, schedule: Q01DX009 (ip), vehicle: other",0 of 6 and 2 of 6
same,survivor count,"dose: 100.0 mg/kg/injection, schedule: Q01DX009 (ip), vehicle: other",0 of 6
same,survivor count,"dose: 200.0 mg/kg/injection, schedule: Q01DX009 (ip), vehicle: other",0 of 6
COC(=O)C(CNc1ccc(S(N)(=O)=O)cc1)=[N+]=[N-],survivor count,[1],5 of 6
CCOC(=O)/C(C(=N)c1nc(C)c(C(=O)OCC)c(C(N)=O)n1)=C(/C)O,survivor count,"dose: 50.0 mg/kg/injection, schedule: Q01DX005 (ip), vehicle: Klucel (hydroxypropylcellulose) (HPC)",5 of 6

# Reference: PubChem BioAssay AID330 (DTP/NCI, 2004)
